# Library screen at single concentrations

The chains behind the UniProt entries cited, without tags or fusion partners. Residues count along the entry.
UniProt I6X8D2, whole entry: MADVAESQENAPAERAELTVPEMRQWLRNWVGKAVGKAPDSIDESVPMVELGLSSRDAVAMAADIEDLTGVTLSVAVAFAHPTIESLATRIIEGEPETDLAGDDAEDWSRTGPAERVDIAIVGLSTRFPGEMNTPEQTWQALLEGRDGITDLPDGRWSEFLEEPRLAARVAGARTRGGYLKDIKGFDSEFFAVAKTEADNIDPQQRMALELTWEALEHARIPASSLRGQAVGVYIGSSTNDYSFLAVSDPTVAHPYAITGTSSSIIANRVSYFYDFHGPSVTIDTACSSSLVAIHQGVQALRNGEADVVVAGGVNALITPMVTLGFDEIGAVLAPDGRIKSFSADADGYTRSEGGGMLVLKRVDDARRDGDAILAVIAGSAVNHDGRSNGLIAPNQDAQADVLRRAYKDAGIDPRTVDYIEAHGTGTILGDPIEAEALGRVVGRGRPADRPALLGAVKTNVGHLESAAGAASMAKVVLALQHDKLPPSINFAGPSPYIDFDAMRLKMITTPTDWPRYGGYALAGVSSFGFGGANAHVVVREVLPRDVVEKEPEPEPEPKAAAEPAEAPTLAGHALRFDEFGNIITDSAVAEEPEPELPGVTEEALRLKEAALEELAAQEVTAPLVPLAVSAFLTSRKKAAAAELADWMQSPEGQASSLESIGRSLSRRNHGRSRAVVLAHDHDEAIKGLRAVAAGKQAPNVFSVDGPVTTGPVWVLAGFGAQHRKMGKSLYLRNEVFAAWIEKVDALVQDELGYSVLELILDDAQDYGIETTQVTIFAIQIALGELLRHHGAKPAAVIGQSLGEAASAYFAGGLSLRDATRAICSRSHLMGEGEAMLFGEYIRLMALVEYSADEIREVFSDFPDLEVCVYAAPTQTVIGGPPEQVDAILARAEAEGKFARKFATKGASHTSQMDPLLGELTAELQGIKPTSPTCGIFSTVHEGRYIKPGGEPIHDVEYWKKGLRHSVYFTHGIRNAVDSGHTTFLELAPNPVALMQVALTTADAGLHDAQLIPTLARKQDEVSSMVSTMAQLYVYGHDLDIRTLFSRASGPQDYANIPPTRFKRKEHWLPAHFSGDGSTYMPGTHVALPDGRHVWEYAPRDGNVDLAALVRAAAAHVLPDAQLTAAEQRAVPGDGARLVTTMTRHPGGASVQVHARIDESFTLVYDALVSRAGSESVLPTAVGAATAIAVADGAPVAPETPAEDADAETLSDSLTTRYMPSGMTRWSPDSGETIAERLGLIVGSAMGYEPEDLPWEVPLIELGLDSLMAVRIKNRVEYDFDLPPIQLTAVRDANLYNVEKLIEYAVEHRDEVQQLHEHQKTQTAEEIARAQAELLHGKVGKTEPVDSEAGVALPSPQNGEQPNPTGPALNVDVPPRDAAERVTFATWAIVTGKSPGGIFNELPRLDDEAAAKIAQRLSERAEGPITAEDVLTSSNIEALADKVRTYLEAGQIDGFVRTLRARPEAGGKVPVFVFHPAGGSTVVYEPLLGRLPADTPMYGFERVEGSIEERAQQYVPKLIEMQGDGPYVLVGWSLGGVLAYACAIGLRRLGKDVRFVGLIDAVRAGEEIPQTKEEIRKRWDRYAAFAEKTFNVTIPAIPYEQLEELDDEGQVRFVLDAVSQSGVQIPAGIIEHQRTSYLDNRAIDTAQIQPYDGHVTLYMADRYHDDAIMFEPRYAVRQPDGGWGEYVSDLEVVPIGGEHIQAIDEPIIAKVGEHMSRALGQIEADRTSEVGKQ
UniProt Q4DA54, 1-478: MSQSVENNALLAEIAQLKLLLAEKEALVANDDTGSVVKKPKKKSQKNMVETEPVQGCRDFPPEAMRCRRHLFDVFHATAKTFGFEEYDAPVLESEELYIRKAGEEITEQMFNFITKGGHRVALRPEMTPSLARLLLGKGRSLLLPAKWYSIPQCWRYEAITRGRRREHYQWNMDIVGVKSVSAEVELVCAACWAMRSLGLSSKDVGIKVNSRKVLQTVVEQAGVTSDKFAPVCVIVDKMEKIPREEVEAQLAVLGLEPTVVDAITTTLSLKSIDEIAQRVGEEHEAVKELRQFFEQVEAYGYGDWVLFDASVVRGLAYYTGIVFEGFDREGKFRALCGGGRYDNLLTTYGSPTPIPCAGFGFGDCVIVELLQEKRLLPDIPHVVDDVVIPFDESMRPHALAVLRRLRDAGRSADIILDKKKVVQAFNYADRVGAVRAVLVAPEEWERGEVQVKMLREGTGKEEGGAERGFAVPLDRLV
UniProt P9WPC5, whole entry: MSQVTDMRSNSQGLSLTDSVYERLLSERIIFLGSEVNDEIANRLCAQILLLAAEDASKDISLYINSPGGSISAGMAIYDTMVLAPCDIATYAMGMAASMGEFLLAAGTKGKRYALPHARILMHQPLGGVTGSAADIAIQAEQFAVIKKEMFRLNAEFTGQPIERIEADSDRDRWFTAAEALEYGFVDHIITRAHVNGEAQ
UniProt P9WPC3, whole entry partner: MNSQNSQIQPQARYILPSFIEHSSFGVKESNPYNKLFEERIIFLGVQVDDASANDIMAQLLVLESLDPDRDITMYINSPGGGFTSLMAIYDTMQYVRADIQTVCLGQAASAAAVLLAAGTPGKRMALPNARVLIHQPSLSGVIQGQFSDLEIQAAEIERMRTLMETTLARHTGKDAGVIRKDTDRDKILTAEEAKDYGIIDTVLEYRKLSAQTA
UniProt A4I591, 1-473: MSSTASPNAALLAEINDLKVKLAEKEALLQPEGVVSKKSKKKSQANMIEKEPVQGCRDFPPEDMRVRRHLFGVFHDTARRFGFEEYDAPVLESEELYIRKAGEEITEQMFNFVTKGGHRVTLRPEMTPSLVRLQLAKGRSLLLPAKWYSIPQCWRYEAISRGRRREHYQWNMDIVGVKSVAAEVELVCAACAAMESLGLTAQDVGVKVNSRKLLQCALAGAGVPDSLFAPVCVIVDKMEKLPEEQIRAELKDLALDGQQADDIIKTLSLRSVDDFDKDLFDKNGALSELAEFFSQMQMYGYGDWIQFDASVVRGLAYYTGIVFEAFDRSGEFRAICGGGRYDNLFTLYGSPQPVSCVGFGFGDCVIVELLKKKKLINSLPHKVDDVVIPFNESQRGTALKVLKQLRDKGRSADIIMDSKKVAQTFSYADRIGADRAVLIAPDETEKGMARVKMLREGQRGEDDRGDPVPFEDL

From ChEMBL document CHEMBL3988442, “University of Dundee, Small-Polar-MMV Screening Library” (2021).

Results are given as percent effect. The controls that fix the scale are not given in the record; negative values are as filed. The compounds are a random part of those screened. Two or more numbers in one place are separate tests of the same structure; such repeats can differ widely. A dash means the value is not listed here; it may have been measured.

Pks13 thioesterase: 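Enzyme assay of the thioesterase domain of polyketide synthase 13; the read-out is not stated. Target: Polyketide synthase Pks13, Mycobacterium tuberculosis (UniProt I6X8D2). Compounds at 30 µM. Higher reads as stronger inhibition (inferred from which compounds were picked for retests). About 67,000 compounds were tested under these conditions; 0.46% (about 300) showed 50% or more at least once.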
TcHisRS: 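Enzyme assay of histidyl-tRNA synthetase; the read-out is not stated. Target: Histidine-tRNA ligase, Trypanosoma cruzi CL Brener (UniProt Q4DA54). Compounds at 30 µM. The record gives no direction; compounds that gave an IC50 in retests scored well above the rest, so higher reads as stronger inhibition. Size under these conditions: about 69,000 compounds, about 31 of them at 50% or above in at least one test.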
ClpP1P2: 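ClpP1P2, Mycobacterium tuberculosis (UniProt P9WPC5 and UniProt P9WPC3). Protease assay of ClpP1P2, read by the AMC dye that it sets free. Compounds at 50 µM. Higher reads as stronger inhibition, judged from the few compounds that gave an IC50. Most other retested compounds had strongly negative values. Of about 69,000 compounds tested this way, about 10 (0.015%) reached 50% or more in at least one test.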
Leishmania in macrophages: 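Cell assay of Leishmania donovani living inside macrophages; the read-out is not stated. Compounds at 30 µM. Higher reads as stronger inhibition (inferred: compounds with an IC50 in retests scored well above the rest). Size under these conditions: about 69,000 compounds, about 1,000 of them at 50% or above in at least one test.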
LiHisRS: 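Histidine-tRNA ligase, Leishmania infantum (UniProt A4I591). Enzyme assay of histidyl-tRNA synthetase; the read-out is not stated. Compounds at 30 µM. The record gives no direction; compounds that gave an IC50 in retests scored well above the rest, so higher reads as stronger inhibition. The assay is labelled LdHisRS but filed under L. infantum. Of about 69,000 compounds tested this way, about 410 (0.6%) reached 50% or more in at least one test.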

Compound: [H][C@]12CC[C@]([H])(CN(C(=O)CCn3cc(Cl)cn3)C1)N(CCOC)C2
Leishmania in macrophages: 27.78

Compound: COc1cccc(C2=CCN(CCN3CCCC3=O)CC2)c1
Pks13 thioesterase: 0.6753
TcHisRS: -1.587
ClpP1P2: -10.63
Leishmania in macrophages: -5.238
LiHisRS: -2.74

Compound: CN1CC[C@@H]2[C@@H]1CCN2Cc1ccc2c(c1)OCO2
Pks13 thioesterase: -6.74
TcHisRS: 8.738
ClpP1P2: -9.965
LiHisRS: 19.42

Compound: O=C(CCc1cccs1)N1CCC(N2CCNC2=O)CC1
Pks13 thioesterase: -15.87
TcHisRS: 1.887
ClpP1P2: 13.17
Leishmania in macrophages: 4.752
LiHisRS: 24

Compound: O=C(C1CC1)N1CCc2c(ncnc2NCCc2nc3c(s2)CCC3)C1
Pks13 thioesterase: 25.94
TcHisRS: 1.299
ClpP1P2: 1.314
Leishmania in macrophages: -26.67
LiHisRS: 6.667

Compound: c1ccc(-c2nnn3c2COC(CNCc2ccccn2)C3)cc1 (centres undefined)
Pks13 thioesterase: -23.59
TcHisRS: 0
ClpP1P2: -9.335
Leishmania in macrophages: 15.87 and 9.289
LiHisRS: 12.28

Compound: Cc1ccc(CN2CCOCC3(C2)CN(c2ccc(C)s2)C(=O)CO3)o1 (centres undefined)
Pks13 thioesterase: -3.656
TcHisRS: 8.602
ClpP1P2: -1.208
LiHisRS: 9.735

Compound: Cc1cc(C)n(CCN(C)Cc2c[nH]nc2-c2ccc3c(c2)OCO3)n1
Pks13 thioesterase: -10.99
TcHisRS: 1.026
ClpP1P2: -4.717
Leishmania in macrophages: 11.09
LiHisRS: 14.29

Compound: O=C(CCn1cnc2cc(F)c(F)cc21)N1CCN2CCCCC2C1 (centres undefined)
Pks13 thioesterase: -24.32
TcHisRS: 1.754
ClpP1P2: 2.48
Leishmania in macrophages: -26.35
LiHisRS: 21.43

Compound: FC(F)(F)COc1ccc(CSCc2ccon2)cn1
Pks13 thioesterase: -26.88
TcHisRS: -0.431
ClpP1P2: -21.11
Leishmania in macrophages: 10.26
LiHisRS: 11.39

Compound: O=C(NC[C@H]1OC[C@@H](N(CC2CC2)CC2CC2)[C@@H]1O)Nc1ccccc1
Pks13 thioesterase: -12.3
TcHisRS: 9.783
ClpP1P2: -1.472
Leishmania in macrophages: 14.64
LiHisRS: 14.86

Compound: Cc1nc(C)n(CC2CCCN2c2ncnc3c2CCC3)n1 (centres undefined)
Pks13 thioesterase: -15.49
TcHisRS: 6.863
ClpP1P2: 3.701
Leishmania in macrophages: 2.873
LiHisRS: -2.521

Compound: Cc1ccsc1C(=O)N1C[C@@H](C(=O)O)[C@H](C(C)C)C1
Pks13 thioesterase: 0.07413
TcHisRS: 5
ClpP1P2: 0.4194
Leishmania in macrophages: -19.58
LiHisRS: -2.041

Compound: Cc1cnn(CC2CCCN2Cc2nnsc2Cl)c1 (centres undefined)
Pks13 thioesterase: -40.15
TcHisRS: 3.759
ClpP1P2: -2.534
Leishmania in macrophages: -8.701
LiHisRS: -5.618

Compound: Cc1noc(C)c1CS(=O)(=O)CC(=O)NCCc1ccccc1
TcHisRS: 7.071
ClpP1P2: 3.231
Leishmania in macrophages: -10.31
LiHisRS: 14.29

Compound: c1cc2c(cc1CN1CC[C@H]3[C@H]1CCN3CC1CC1)OCO2
Pks13 thioesterase: -4.887
TcHisRS: 2.913
ClpP1P2: -10.83
LiHisRS: 3.883

Compound: O=C(O)C(F)(F)F.[H][C@@]12CCN(CC(C)C)[C@@]1([H])CCN2S(=O)(=O)c1cn(C)cn1
Leishmania in macrophages: 0.485

Compound: CCN(CC1CCOC1)C(=O)Nc1ccc(N2CCCCC2)nc1 (centres undefined)
Pks13 thioesterase: -6.565
TcHisRS: 6.745
ClpP1P2: -33.24
Leishmania in macrophages: 22.27
LiHisRS: 15.74

Compound: Cc1nc(C)n(C2CCCN(C(=O)c3ccc(F)cc3F)C2)n1 (centres undefined)
Pks13 thioesterase: -22.28
TcHisRS: 2.674
ClpP1P2: 1.7
Leishmania in macrophages: 8.853
LiHisRS: 19.23

Compound: O=C(C1CN(CC2CCOCC2)CC12CCOCC2)N1CCCC1 (centres undefined)
TcHisRS: 8.046
ClpP1P2: 0.246
LiHisRS: 14

Compound: Cc1nc(C)n(CC2CCCN2c2ncnc3sccc23)n1 (centres undefined)
Pks13 thioesterase: -7.123
TcHisRS: 7.035
ClpP1P2: -14.6
Leishmania in macrophages: 42.89
LiHisRS: 10.59

Compound: CC[C@]12CN3C[C@](CC)(CN(C1)C3c1[nH]c(=O)[nH]c(=O)c1C)C2=O (some centres undefined)
Pks13 thioesterase: 5.379
TcHisRS: 9
ClpP1P2: 14.53
Leishmania in macrophages: 40.5
LiHisRS: 4.348

Compound: CCN(CC)C(CNS(=O)(=O)c1ccc(C(C)=O)cc1)c1ccco1 (centres undefined)
Pks13 thioesterase: -7.089
TcHisRS: 6.726
ClpP1P2: -3.762
Leishmania in macrophages: 33.09
LiHisRS: 24.71

The first 3 entries again:

| Compound | Pks13 thioesterase | TcHisRS | ClpP1P2 | Leishmania in macrophages | LiHisRS |
|---|---|---|---|---|---|
| `[H][C@]12CC[C@]([H])(CN(C(=O)CCn3cc(Cl)cn3)C1)N(CCOC)C2` | - | - | - | 27.78 | - |
| `COc1cccc(C2=CCN(CCN3CCCC3=O)CC2)c1` | 0.6753 | -1.587 | -10.63 | -5.238 | -2.74 |
| `CN1CC[C@@H]2[C@@H]1CCN2Cc1ccc2c(c1)OCO2` | -6.74 | 8.738 | -9.965 | - | 19.42 |